This assay concerns the target OsHLH61 (Helix-loop-helix 61), yeast two-hybrid fusion (rice (Oryza sativa)) (UniProt B7F971). In words: two-hybrid; Gal4 system (pGBKT7 / pGADT7); library screen with pGBKT7-OsHLH61 in AH109 and pairwise tests; growth on SD-LTHA (without Leu, Trp, His, Ade).

Results are given in words; binding and its absence hold for the method and conditions named. A result given as binding can be weak or reduced; the word gives no strength.

In the case of “OsbHLH96, yeast two-hybrid fusion (from UniProt B7F0D7)”, the binding entry was “binds”.

The values are drawn from PMC6386760.
